{
  "source": "patent US20220243213A1",
  "about": "“ANTI-CRISPR INHIBITORS” (THE REGENTS OF THE UNIVERSITY OF CALIFORNIA, published 2022)",
  "key": {"[1]": {"tested_on": "Aca1 (Pseudomonas aeruginosa phage JBD30)", "assay": "EMSA", "conditions": "single shifted band only; purified recombinant protein; variant of acrIF1 promoter IR1-IR2 oligo WT"}, "[2]": {"biological_target": "T1, Aca2 ZF40 (Pectobacterium phage ZF40) (UniProt H9C180)", "T1 sequence (looked up, limits assumed)": "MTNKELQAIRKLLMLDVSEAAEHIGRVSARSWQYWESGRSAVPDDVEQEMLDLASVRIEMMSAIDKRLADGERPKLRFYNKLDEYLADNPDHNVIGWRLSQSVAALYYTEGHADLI", "assay": "activity in cells", "conditions": "no repression of non-cognate promoter; protein in cells"}, "[3]": {"tested_on": "T2, Aca3 (Neisseria meningitidis 2842STDY5881035)", "T2 sequence": "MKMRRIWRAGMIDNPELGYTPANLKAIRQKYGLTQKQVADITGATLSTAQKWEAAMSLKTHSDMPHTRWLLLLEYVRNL", "assay": "activity in cells", "conditions": "protein in cells"}},
  "note": "For some assays here: A negative result means that nothing was seen under these conditions. For some assays here: Protein sequences can lack the tags named with them. For some assays here: A weaker result is weaker than the reference pair of the same experiment. For some assays here: The exact form of at least one protein or probe is not confirmed.",
  "data": [
    {"sequence": "ACAAGCGTCGTACTGTGCCTATTGCGAATTAGGCACAATGTGCCTAATCTAACG (double strand) [IR1 mutant oligo]", "values": [
      {"measurement": "binding result", "setting": "[1]", "result": "binds more weakly"}
    ]},
    {"sequence": "AATTGAATCCGCAATGGTGAAATATCGACAATGAACGACAATACACACACCCTTCCCCCGCGCCACCTGTCCGTCGCTCCCATGCTCGACTGTATCTACTGAAAAATAATATATTGAAAAATAATATATAATATATTTTTATTATTCTTATGGTGCAAATAAAGCACATTGTGCATTGGAAATAAAAACGGCAAATTAATTACCTTTGTTTTTAAAGGTTTATTAAATTGGCGGTTTTTTGTTTGAAAAAATGCTTGTGATACATCATTTTTTGATGTAGTATACACACATCGGCAGACAACAAGCCTGCCACCGACACCTTGACGGCTTCAAGGATAAACGAAAGGATTTCAAA (double strand) [Nme 2842STDY5881035 acrIIC3 upstream region]", "values": [
      {"measurement": "activity on this sequence", "setting": "[2]", "result": "not active"},
      {"measurement": "activity on this sequence (fold repression)", "setting": "[3]; lacZ reporter in E. coli, Aca3 with N-terminal extension", "result": 20}
    ]},
    {"sequence": "ACAAGCGGCACACTGTGCCTATTGCGAGCTAGTCCCAATGTGCCTAATCTAACG (double strand) [IR2 mutant oligo]", "values": [
      {"measurement": "binding result", "setting": "[1]", "result": "binds more weakly"}
    ]},
    {"sequence": "AGCCTCACCTCCGGCGTTGCCGTGGCGCTGTGTGATTTACAGGAAATAAAAAGGCCACGAATGCGGCCTTAGCGATTAAAAAATATGAAATGCCTTGCTTGTTCGCGATTGCGAACATATAATTTATTCATCGGTTCGAG (double strand) [ZF40 acrIF8 promoter region]", "values": [
      {"measurement": "activity on this sequence", "setting": "[3]; no repression of non-cognate promoter", "result": "not active"}
    ]}
  ]
}
